Earlier results as cited in US20160151380A1, “THERAPIES FOR DISEASES CAUSED BY ARTHROPOD-BORNE PARASITES” (THE REGENTS OF THE UNIVERSITY OF CALIFORNIA, priority 2013, published 2016).
The structures given here were assigned with low confidence; some may be wrong.

Chains of the proteins cited; added tags and fusions are not shown.
UniProt P45983, whole entry: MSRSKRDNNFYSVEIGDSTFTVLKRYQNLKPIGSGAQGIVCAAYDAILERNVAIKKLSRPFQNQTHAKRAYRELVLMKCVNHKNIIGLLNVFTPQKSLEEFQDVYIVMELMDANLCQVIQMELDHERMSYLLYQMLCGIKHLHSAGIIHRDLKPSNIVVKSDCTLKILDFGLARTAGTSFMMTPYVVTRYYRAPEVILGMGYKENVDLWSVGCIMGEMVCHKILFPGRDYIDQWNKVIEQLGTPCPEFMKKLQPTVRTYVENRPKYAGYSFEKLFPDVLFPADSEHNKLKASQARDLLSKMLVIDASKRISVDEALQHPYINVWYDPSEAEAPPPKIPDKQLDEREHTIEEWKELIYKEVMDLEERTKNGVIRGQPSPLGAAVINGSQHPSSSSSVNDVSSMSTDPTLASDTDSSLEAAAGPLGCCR
UniProt Q02156, whole entry: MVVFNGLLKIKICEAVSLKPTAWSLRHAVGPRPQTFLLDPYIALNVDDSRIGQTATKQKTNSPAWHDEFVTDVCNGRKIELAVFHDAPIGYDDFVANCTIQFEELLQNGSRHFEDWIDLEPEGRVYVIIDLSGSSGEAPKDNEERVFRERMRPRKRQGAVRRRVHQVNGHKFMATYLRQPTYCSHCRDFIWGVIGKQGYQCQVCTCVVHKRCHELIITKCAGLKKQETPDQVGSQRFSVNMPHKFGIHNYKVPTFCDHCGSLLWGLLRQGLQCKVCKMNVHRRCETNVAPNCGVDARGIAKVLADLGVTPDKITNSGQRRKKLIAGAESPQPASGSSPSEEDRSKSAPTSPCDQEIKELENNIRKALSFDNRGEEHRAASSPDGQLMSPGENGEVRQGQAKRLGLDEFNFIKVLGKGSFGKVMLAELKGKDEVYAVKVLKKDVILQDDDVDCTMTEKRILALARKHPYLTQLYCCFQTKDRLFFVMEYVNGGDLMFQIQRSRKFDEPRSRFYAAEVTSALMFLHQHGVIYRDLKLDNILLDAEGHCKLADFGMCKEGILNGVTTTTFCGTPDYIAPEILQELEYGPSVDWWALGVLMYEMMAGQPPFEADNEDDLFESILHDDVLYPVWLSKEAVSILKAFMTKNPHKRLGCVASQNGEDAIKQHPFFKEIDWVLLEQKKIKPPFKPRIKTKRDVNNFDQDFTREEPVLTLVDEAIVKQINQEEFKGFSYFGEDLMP
UniProt P53779, whole entry: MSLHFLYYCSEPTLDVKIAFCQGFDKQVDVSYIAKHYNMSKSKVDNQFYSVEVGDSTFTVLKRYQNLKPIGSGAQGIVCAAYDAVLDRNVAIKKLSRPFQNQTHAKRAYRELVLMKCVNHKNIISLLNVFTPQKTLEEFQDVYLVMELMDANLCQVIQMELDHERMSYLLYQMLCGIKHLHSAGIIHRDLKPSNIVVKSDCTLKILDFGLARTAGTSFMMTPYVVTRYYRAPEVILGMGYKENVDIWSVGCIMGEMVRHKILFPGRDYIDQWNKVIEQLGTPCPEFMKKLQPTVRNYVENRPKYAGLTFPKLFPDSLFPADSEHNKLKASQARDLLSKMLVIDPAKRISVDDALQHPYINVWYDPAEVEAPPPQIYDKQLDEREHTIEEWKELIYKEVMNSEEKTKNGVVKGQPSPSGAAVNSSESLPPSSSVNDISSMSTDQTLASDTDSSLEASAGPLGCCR

What was measured:
Details in all cases: cited from earlier work
JNK1 = JNK1 (Homo sapiens, UniProt P45983)
PKCepsilon = PKCepsilon (Homo sapiens, UniProt Q02156)
JNK3 = JNK3 (Homo sapiens, UniProt P53779)

Row | Structure (SMILES) | IC50 (PKCepsilon) [nM] | also measured
1 | Cc1ccc(C(=O)Nc2cccc(C(C)(C)C)c2)cc1-c1ccc(C(=O)NCC2CC2)cc1 | – | Kd (JNK1): < 1250 nM
2 | O=C(N[C@@H]1CNC[C@H]1OC(=O)c1cc(O)c(C(=O)c2c(O)cccc2C(=O)O)c(O)c1)c1ccc(O)cc1 | 10 | –
3 | CC(C)NCC(C(=O)N1CCN(c2ncnc3c2[C@H](C)CC3)CC1)c1ccc(Cl)cc1 (stereo partly shown) | – | Kd (JNK3): < 400 nM
4 | O=C(N[C@@H]1CCC[C@H]1OC(=O)c1cc(O)c(C(=O)c2c(O)cccc2C(=O)O)c(O)c1)c1ccc(O)cc1 | 50 | –
